The data set can be described thus: Evaluation of resist sensitivity (light exposure value from patterns formed). As to conditions: resist liquid on aluminum plate, high-pressure mercury lamp.

Molecules are shown by their SMILES.

On to `O=C1c2cccc3cccc(c23)C(=O)N1OS(=O)(=O)C(F)(F)F` [Comparative compound 2], for which the Light exposure sensitivity by setting is: (365 nm) 1.0 J/cm^2; (405 nm) >33 J/cm^2; (435 nm) >33 J/cm^2.
